For 30 sequences, z-score results are on record in PubChem BioAssay AID1508600 (Functional Genomics Laboratory (NCATS/FGL), 2020).

Screen size: about 53,000 sequences; about 3,700 (7%) were called active.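 How the source made its calls: active means gene knockdowns whose robust z-score for IL-1 alpha signal is at least 2 or at most -2, so actives lie on both sides; inactive means the rest.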 The list shows a part of the results.

This experiment is described as follows: Components of the Cytosolic LPS Sensing Pathway: Gene Identification via Genome-wide siRNA Screen.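 Further: robust z of the log signal after scaling to non-targeting control siRNA wells of the plate.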 Particulars: RAW264.7 macrophages, IL-1a HTRF, actives lie on both sides, screened at 100 nM (by protocol), cells primed 5 h with Pam3CSK4 first. Put shortly: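 Three distinct siRNAs per gene were tested singly at 100 nM in RAW264.7 macrophages. Following Pam3CSK4 priming and 24 hour LipidA transfection, IL-1a secretion was read by HTRF.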
(In TR-FRET formats the signal depends on donor and acceptor labels being close together.)
In the case of GCCAUGGAAAAUUUCCUCCTT against Olfr357, the z-score was inactive: 0.52. For “CGCACAGUACCUUUACCUCTT against A630052C17Rik” the value was inactive: 0.514; for CCUCCCAAGUAAAUUAUUATT against Slc16a12, inactive: 1.99. For GCAAGUCCGGAUGUAAGGATT against Ccdc42 the value was inactive: -0.0917; for GGUUUGUAGAGGCAUCAAGTT against Snph, inactive: -0.13. Regarding GGUAUCAGAGACAACCAAATT against Chad, the z-score was inactive: 0.0541. Then CGCCUAAGAAUAUGAAAAATT against Nek3, with inactive: -0.2. For GCAACCUAUGUCUGCAACUTT against Spink7 the value was inactive: -1.11; for GGAAGUAUCUGGAAAGGGATT against Usp2, inactive: 0.56. For GCUGGACAUAUGGUCCAAATT against Med27 the value was inactive: 0.527; for “GGAAACGAUGAAGAACAAATT against 4933427D06Rik”, inactive: -0.714.

In the case of GGAGAGAAAAACACCUAUGTT against Prlr, the z-score was inactive: 0.191. For GGUCUCAGGCUCAACUCAATT against Gm6116 the value was inactive: 0.856.

On to CCCUGUUUAACUAUUACAATT against Tmc2, for which the z-score was inactive: -1.05. For GGCAGGUUUUUGACAACUUTT against Fxyd4 the value was active: 3.2; for GGUGUCUUUACGUCUCCCATT against Neto1, active: -2.56.

Consider GCAAAUGCUGUCAGUGGGATT against Cd59b, for which the z-score is inactive: -1.69.

With CGAGGACAAAAAUACCGACTT against Supt6, the z-score is inactive: -1.51. For GCGCAAAGGGUUUGUUAAGTT against Mogat1 the value was inactive: -0.203; for GGUACAAAUCGAUUGUCAATT against Fdps, inactive: 0.288; for GGAAAAGAAGUGACCUGCUTT against Anapc4, inactive: 0.228.

For the sequence GCGAGAAGCUUUAGAACGATT against Ubxn1, the z-score was inactive: 0.255.

Regarding GGAGUCAAGUACGAUGUGATT against C8b, the z-score was inactive: -0.0383.

Turning to GGUACAGAGCAAUAAGCAUTT against Mbd6, the z-score was inactive: -0.0683. Then GCUGGUAUGGAUUGUUUCGTT against Ccng2, with inactive: 0.619; and GGCUGAUUAUCACAGCAAGTT against Ablim2, with inactive: 0.0677. As for GGAGUCGAAUCUUCUCUAATT against Taco1, the z-score is inactive: -1.07. For GGUGGACAUGAGCAAAGUATT against Srrm1 the value was inactive: 1.54. Turning to CAAACCUUGUUGCCAUGACTT against Olfr406, the z-score was inactive: 0.0688. For GCGGAAGUCGGAUUUUAUCTT against Kif1c, the z-score is active: 3.01.
